Test results: patent publication US20110229491A1 (published 2011)
No constants are given. Whether binding was seen depends on the method and setting. In cells and extracts the contact can be indirect. Some binding calls cover weakened binding; strength is not graded here. Tags and fused reporters may be left off the sequences shown.

Target: T1, Minichromosome maintenance family protein 5 (MCM5), At2g07690, from Arabidopsis cell suspension culture (Arabidopsis) (UniProt O80786)
T1 sequence (looked up): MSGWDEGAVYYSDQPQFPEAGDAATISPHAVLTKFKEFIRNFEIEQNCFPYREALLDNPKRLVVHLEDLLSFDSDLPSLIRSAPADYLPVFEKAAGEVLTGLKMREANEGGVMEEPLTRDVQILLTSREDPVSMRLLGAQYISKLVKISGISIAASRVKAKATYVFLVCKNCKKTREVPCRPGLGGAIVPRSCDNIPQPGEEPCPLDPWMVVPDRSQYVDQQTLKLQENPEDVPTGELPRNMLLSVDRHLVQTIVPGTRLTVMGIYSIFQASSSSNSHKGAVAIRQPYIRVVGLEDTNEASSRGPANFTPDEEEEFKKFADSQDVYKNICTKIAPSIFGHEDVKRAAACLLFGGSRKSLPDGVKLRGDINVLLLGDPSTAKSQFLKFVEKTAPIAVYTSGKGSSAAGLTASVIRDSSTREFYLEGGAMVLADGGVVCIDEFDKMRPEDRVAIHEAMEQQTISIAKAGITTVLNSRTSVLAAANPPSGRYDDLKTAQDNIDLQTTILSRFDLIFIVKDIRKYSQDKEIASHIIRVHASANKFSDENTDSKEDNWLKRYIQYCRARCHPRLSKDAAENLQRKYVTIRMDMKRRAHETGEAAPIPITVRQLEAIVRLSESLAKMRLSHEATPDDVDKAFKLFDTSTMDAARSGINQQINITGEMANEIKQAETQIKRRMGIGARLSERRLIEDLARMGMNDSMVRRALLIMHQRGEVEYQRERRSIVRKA
Experiment: tandem affinity purification from Arabidopsis cell culture, MALDI-TOF/TOF MS (co-purified, may be indirect)

binding: binds
B1: TAP-ETG1 (TAP-tagged ETG1 bait, Pro35S:TAP-ETG1) (protein, Arabidopsis, UniProt Q501D5 1-589, looked up)
chain: MGGPAYDCLTNPLGAVRFSFVNALSSGYDPASSVGKDWGVVDLFRHYFSDESAISQVPILDSSSIKWVQPKTLVRFRGMIQDMLGNEFYAGAYKDDSTWRTNKYSDVSQFPEGSSTEIQVWERRLLYCVPVPGKNQWTECSSQELKNRFLDLTGQNREKRVRVDEEMTDSMDSSTLEAGRNGSPFKKMKVGEATSSASESQVPQTSGIPPATSADSLPCLVKIYDSPESDLKLNDVVEFLGVLTFDPIVMMDTDTLDENSDALSEAESVQMPSGKVPRLHCLIHRKLETQHFLHGSSLLPEPKSPQIFKEIRESLMKYLTGLLGNDHIAAQFLLLHLLSKVHGRVDNVAVGKLSLNLIHLNKESMSIFGTQLSGALKSLLPFTQSIPLTIEYLNTASFGPKKDYGINRLMPGVLQIADGTHLILDETELQPGTLNSVGVENANLLKNLLECQKVEYDFQYYKMEMATDVQMLIFSEGKSNIMPADLVLPLQPSQVNSLEVITPETAETWRCYLATCKSLSHSIGQELQQVVENDLVAARQTDRSLGSQDLSRLLTMARMMSVSYGETTLSLEHWQMVLELERLRKERLK
